## Primary screen of a compound library

Source: ChEMBL document CHEMBL3988442, “University of Dundee, Small-Polar-MMV Screening Library” (2021).

Values are the deposited “Percent Effect”, in %.
How 0% and 100% were set is not recorded. Most values in the screen are low, and negative values occur.
Compounds were drawn at random from those tested, without regard to their results.
Two or more numbers in one place are separate tests of the same structure; such repeats can differ widely.

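Cell assay of Leishmania donovani living inside macrophages; the read-out is not stated. Compounds at 30 µM. Higher reads as stronger inhibition (inferred: compounds with an IC50 in retests scored well above the rest). Of about 69,000 compounds tested this way, about 1,000 (1.5%) reached 50% or more in at least one test.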

| SMILES | Percent Effect |
|---|---|
| `CC(C)c1cc(-c2cnn(C)c2C2CC2)c(C#N)c(N)n1` | 32.8 |
| `Cc1cc(CNC(=O)NC(C)c2ccccc2)no1` (centres undefined) | 23.21 |
| `CC(C)c1cc(CN(C)C(=O)CN2CCC(C(N)=O)CC2)no1` | -27.69 |
| `COc1ccc(-c2nccnc2C2CCN(C(C)=O)CC2)cc1` | -23.64 |
| `Cn1cc(CN2CCCCC2c2ccc(-c3cccc(F)c3)nc2)cn1` (centres undefined) | 5.103 |
| `COCCN(C(=O)c1cc(C)no1)c1ccc(C#N)cc1` | 21.14 |
| `COc1ccc(OC)c(C(=O)N(C)Cc2ncc(C)c(OC)c2C)c1` | 15.03 |
| `CC(C)c1nc2c(n1C)CCN(Cc1nc(-c3cccs3)no1)C2` | 36.29 |
| `CCC(Nc1nc(C)nc2onc(C)c12)c1nc(C)c(C)s1` (centres undefined) | 15.33 |
| `CS(=O)(=O)NC1CCCN(C(=O)c2cccnc2)C1` (centres undefined) | 19.89 |
| `CN1CCN(c2ncccn2)CC1C(N)=O` (centres undefined) | -26.22 |
| `Cn1c(Cn2ccnc2)nnc1C1CCN(C(=O)C2(C)CC2)CC1` | 15.91 |
| `CN(Cc1ccco1)C(=O)C1CSCN1C(=O)c1cccnc1` (centres undefined) | 19.8 |
| `CC(C)COCC(NC(=O)c1ccncc1)c1ccco1` (centres undefined) | -0.7803 |
| `Cc1nc(CNCc2cccnc2Oc2ccc(C)c(F)c2F)c[nH]1` | 2.372 |
| `COC(=O)CNC(=O)CCc1cc(Cl)cs1` | 18.54 |
| `O=C(N[C@@H]1CCN(Cc2cc3ccccc3s2)C[C@H]1O)c1cccnc1` | 35.71 |
| `Cl.c1nc(CCC2CCCN2)cc(N2CCCCCC2)n1` (centres undefined) | -15.91 |
| `CCN(CC1CCCO1)C(=O)Nc1cccc(Cl)c1OC` (centres undefined) | -14.32 |
| `O=C(O)C(F)(F)F.O=C(c1ccncc1F)N1CC2CC1(C(=O)N1CCCC1)C2` | 11.04 |
| `Cc1cnn(CC2CCCN2C(=O)c2ccc(F)cc2Cl)c1` (centres undefined) | 6.854 |
| `Cc1cccc(-c2noc(CN3CCCC3Cn3cccn3)n2)c1` (centres undefined) | 48.76 |
| `O=C(NCc1ccc(Cl)cc1Cl)NCC1(O)CCSC1` (centres undefined) | 20.28 |
| `O=C(O)C(F)(F)F.O=C(O)C(F)(F)F.[H][C@@]12CCN(Cc3cccnc3)[C@]1([H])CC[C@H](COCC1CC1)O2` | 39.71 |
| `CC(=O)Nc1nc(CS(=O)(=O)CCCc2ccccc2)cs1` | 22.96 |
| `COCC1CC2(CCN(C(=O)c3cc(C)oc3C)CC2)CN1C(C)C.O=C(O)C(F)(F)F` (centres undefined) | 36.8 |
| `CNS(=O)(=O)Cc1ccc(CNc2ccc(C#N)cn2)cc1` | 16.51 |
| `CCOc1ccccc1N(C)C(=O)c1ccc(Cl)cn1` | 30.59 |
| `Cc1ccsc1C(O)CNC(=O)Cc1ccc(S(=O)(=O)C(C)C)cc1` (centres undefined) | 33.57 |
| `COc1ccnc(N2CCC3(CCCN(C(C)C)C3=O)C2)n1` (centres undefined) | -4.617 |
| `COC(=O)CSCc1nc(-c2ccc(Cl)cc2)no1` | 48.03 |
| `CCc1cc(CN(C)Cc2nc(-c3sccc3C)oc2C)on1` | -20.93 |
| `CC(O)CC(C)(C)CNC(=O)NCc1cccc(-n2ccnc2)c1` (centres undefined) | 21.04 |
| `CCc1nc(C2CCCN2CC(=O)Nc2nnc(C)s2)no1` (centres undefined) | 4.373 |
| `Cn1cc(C(=O)Nc2ccnc(Oc3ccccc3)c2)ccc1=O` | -8.979 |
| `CN(Cc1cnn(C)c1)C(=O)Nc1cccnc1-n1cccn1` | 3.379 |
| `CSCC(=O)N1CCc2c(cnc(C)c2-c2noc(-c3cscn3)n2)C1` | 17.26 |
| `CC(C)c1nsc(N2CCn3c(nnc3C(F)(F)F)C2)n1` | -8.897 |
| `COCCN(C)CCN1CC2(CCN(C(=O)C3CCOC3)CC2)OC1=O` (centres undefined) | -15.14 |
| `Cc1ccc(CN2CCOC3(CCN(C(=O)N4CCCC4)CC3)C2)cc1.O=C(O)C(F)(F)F` | -6.95 & -22.78 |
| `Cn1nnc2c1CCN(S(C)(=O)=O)C2COCc1ccccc1` (centres undefined) | 27.5 |
| `CCN(C)CCNC(=O)Cc1nc(-c2ccco2)oc1C` | 11.18 |
| `CCc1ncc(CN2CCCN(CC3CC3)C(C(C)C)C2)cn1` (centres undefined) | 6.635 |
| `COCC1c2nnn(CC3CC3)c2CCN1C(=O)Cc1cccs1` (centres undefined) | 19.24 |
| `COc1ccc(NC(C)c2nnnn2-c2ccccc2)cc1F` (centres undefined) | -10.62 |
| `Nc1cc2c(nn1)CCN(C(=O)CCc1ccc3c(c1)OCO3)C2` | -0.9606 |
| `COCc1nc(C(=O)N2CCN(Cc3cc(C)on3)CC2)cs1` | -29.44 |
| `Cc1nccn1CC1CCN(C(=O)c2ccccc2)CC1` | 14.35 & 25.69 |
| `O=C(O)C(F)(F)F.[H][C@@]12CN(C3CCOCC3)C[C@@]1([H])N(Cc1cccc(F)c1)C(=O)CO2` | 7.912 |
| `CCN1CC2(CNCCN(C(=O)Nc3ccccc3)C2)CC1=O.O=C(O)C(F)(F)F` (centres undefined) | -3.914 |